Values quoted from earlier work, collected in US8921421B2, “Inhibitors of dimethylarginine dimethylaminohydrolase” (Christian-Albrechts-Universitaet Zu Kiel, priority 2008, dated 2014).
For at least one compound, name, drawing or mass did not settle the structure.

Tested on: murine DDAH
Conditions: prior art value; cited from earlier work

Structure (SMILES): COCCNC(=N)NCCC[C@H](N)C(=O)O [Substance L-257, N^ω-(2-methoxyethyl)-L-arginine, reference compound]
- IC50: 22 µM
